This series is described as follows: Recording evaluation of optical disc with dye optical layer. Conditions: laser 405 nm, NA 0.65, CLV 6.61 m/sec; for PRSNR / SbER: information recorded in adjacent tracks. The text has this: A definition and the measuring techniques of PRSNR are described in a book available from DVD Format Logo Licensing Co., Ltd. for example, Annex H of Version 0.9, PART 1 Physical Specifications, DVD Specifications for High Density Read-Only Disk.
A definition and the measuring techniques of SbER are described in a book available from DVD Format Logo Licensing Co., Ltd. for example, Annex H of Version 0.9, PART 1 Physical Specifications, DVD Specifications for High Density Read-Only Disk.
PRSNR and SbER are measured in a state in which information has been recorded in the adjacent tracks.
A definition and the measuring techniques for the light reflectivity (R) is described in a book available from DVD Format Logo Licensing Co., Ltd. for example, Annex D of Version 0.9, PART 1 Physical Specifications, DVD Specifications for High Density Read-Only Disk.
1.4% by weight of the compound of formula (1), prepared according to example 1, are dissolved in 2,2',3,3'-tetrafluoro-1-propanol and the solution is filtered through a Teflon filter of pore size 0.2 µm and applied by spin-coating at 1000 rpm to the surface of a 0.6 mm thick, grooved polycarbonate disc of 120 mm diameter. The excess solution is spun off by increasing the rotational speed. On evaporation of the solvent, the dye remains behind in the form of a uniform, amorphous solid layer, the optical layer. After drying the optical layer in a circulating-air oven at 70°C (10 min) in a vacuum coating apparatus, a 100 µm thick silver layer is then applied to the recording layer by atomization. Then a 6 µm thick protective layer of a UV curable photopolymer (650-020, DSM) is applied thereto by means of spincoating. Finally, a second substrate is provided to combine with the resin protection layer using an attachment layer. This completes the manufacturing of a high-density recordable optical disc, the optical data recording medium. Evaluation tests are performed using an optical disk evaluation device available from Pulse Tech Co., Ltd. The testing conditions are the following ones: • Numerical aperture (NA) of the optical head: 0.65 • Wavelength of a laser light for recording and reproduction: 405 nm • Constant linear velocity (CLV): 6.61 m/sec. • Track pitch: 400 nm • Wobble amplitude of the groove track: 14 nm • Groove depth: 90 nm.

These results are taken from patent publication EP1921115B1, “Use of 3-hydroxy-cyclohex-2-enone azo based dyes in optical layers” (Clariant Finance (BVI) Limited, priority 2006, dated 2008).

Compound `CCOC(=O)C1C(O)=C(N=Nc2ccc(C)cc2[N+](=O)[O-])C(=O)CC1(C)C` (stereo not shown) [compound of formula (1)] had a Pw of 7.1 mW, a modulation of 0.49, a reflectivity of 21.36 and a PRSNR of 26.1. This compound yielded a SbER of 7.50E-08.

The compound `CCOC(=O)C1C(O)=C(N=Nc2ccc(S(C)(=O)=O)cc2[N+](=O)[O-])C(=O)CC1(C)C` (stereo not shown) [compound of formula (5)] yielded a Pw of 7.3 mW, a modulation of 0.51, a reflectivity of 19.04 and a PRSNR of 24. The SbER was 2.00E-07.

As to `CCOC(=O)C1C(O)=C(N=Nc2ccc(OC)cc2[N+](=O)[O-])C(=O)CC1(C)C` (stereo not shown) [compound of formula (6)], the Pw is 8.2 mW, the modulation worked out at 0.40, the reflectivity came out at 20.18 and the PRSNR turned out to be 19.1. This compound had a SbER of 6.90E-06.

In the case of `CCOC(=O)C1C(O)=C(N=Nc2ccc(Cl)cc2[N+](=O)[O-])C(=O)CC1(C)C` (stereo not shown) [compound of formula (3)], the Pw came to 7.3 mW, the modulation is listed as 0.49, the reflectivity is given as 22.72 and the PRSNR amounted to 28.6. Also, the SbER came to 5.20E-08.

In the case of `CCOC(=O)C1C(O)=C(N=Nc2ccc(C(F)(F)F)cc2[N+](=O)[O-])C(=O)CC1(C)C` (stereo not shown) [compound of formula (7)], the Pw stood at 8.4 mW, the modulation stood at 0.40, the reflectivity was determined as 20.18 and the PRSNR is listed as 17.4. The same compound showed a SbER of 1.00E-05.
